The other results are listed elsewhere or left out. Repeats are few or missing, and single values can be far off.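 Imaging used 1,536-well plates; nuclei positive for cleaved PARP by antibody were divided by total DNA-stained nuclei to yield the apoptosis fraction. Doses for screening kept most cells viable, and cell lines differ markedly in resting and induced cleaved-PARP levels.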
What follows are compounds tested on LOXIMVI (assay: cleaved PARP positive nuclei fraction relative to DMSO control; melanoma cells; higher = more apoptosis). Details: library dose: low library concentration; 72 h.

Going from O=c1[nH]nc(Sc2ncc([N+](=O)[O-])s2)n1-c1ccc2c(c1)OCCO2 + COc1cc2c(Oc3ccc4[nH]c(C)cc4c3F)ncnc2cc1OCCCN1CCCC1 [cediranib] (first compound 0.2 µM, partner dose 0.4 µM) to Cc1cc(Nc2cc(N3CCN(C)CC3)nc(Sc3ccc(NC(=O)C4CC4)cc3)n2)n[nH]1 [Tozasertib] + NC(=O)Nc1cc(-c2cccc(F)c2)sc1C(=O)N[C@H]1CCCNC1 [AZD7762] (first compound 0.006 µM, partner dose 0.02 µM), the “cleaved PARP positive nuclei fraction” value rises from 26.9% to 811%.

Going from Cc1cn(-c2cc(NC(=O)c3ccc(C)c(Nc4nccc(-c5cccnc5)n4)c3)cc(C(F)(F)F)c2)cn1 [nilotinib] + O=C(Nc1cccc(Cl)c1)Nc1ncc(CCNc2ncnc3ccsc23)s1 [SNS314] (first compound 0.2 µM, partner dose 0.0008 µM) to Cc1ccc(Nc2nccc(N(C)c3ccc4c(C)n(C)nc4c3)n2)cc1S(N)(=O)=O [Pazopanib] + COc1cc(Nc2ncc(F)c(Nc3ccc4c(n3)NC(=O)C(C)(C)O4)n2)cc(OC)c1OC [Tamatinib] (first compound 0.4 µM, partner dose 0.4 µM), the “cleaved PARP positive nuclei fraction” value falls from 1260% to 54.5%.

First: CCCCCCCCCCCCCCCCCCOP(=O)([O-])OC1CC[N+](C)(C)CC1 [Perifosine] + CC(C)(C)c1cnc(CSc2cnc(NC(=O)C3CCNCC3)s2)o1 [SNS-032] (first compound 0.4 µM, partner dose 0.01 µM)
Second: O=C(/C=C/c1cccnc1)NCCCCC1CCN(C(=O)c2ccccc2)CC1 + Cc1ccc(NC(=O)c2cccc(N(C)C)c2)cc1NC(=O)c1ccc(O)cc1 [ZM336372] (first compound 0.01 µM, partner dose 2 µM)
The “cleaved PARP positive nuclei fraction” value of the first is lower: 87.6% for the first, 113% for the second.

First: O=C(Nc1cc(C(F)(F)F)cc(C(F)(F)F)c1)c1cc(Cl)ccc1O + NCC(=O)Nc1ccc(-n2nc(C(F)(F)F)cc2-c2ccc3c(ccc4ccccc43)c2)cc1 [OSU03012] (first compound 0.016 µM, partner dose 1 µM)
Second: Cc1cn(-c2cc(NC(=O)c3ccc(C)c(Nc4nccc(-c5cccnc5)n4)c3)cc(C(F)(F)F)c2)cn1 [nilotinib] + NC(=O)Nc1cc(-c2cccc(F)c2)sc1C(=O)N[C@H]1CCCNC1 [AZD7762] (first compound 0.2 µM, partner dose 0.02 µM)
The “cleaved PARP positive nuclei fraction” value of the first is higher: 106% for the first, 88.8% for the second.

Compared with CCCCCCCCCCCCCCCCCCOP(=O)([O-])OC1CC[N+](C)(C)CC1 [Perifosine] + O=C(O)c1ccc(-c2c[nH]c3ncc(-c4ccccc4)cc23)cc1C1CCCC1 [GSK650394] (first compound 0.4 µM, partner dose 0.16 µM), O=C(/C=C/c1cccnc1)NCCCCC1CCN(C(=O)c2ccccc2)CC1 + CC(C)(C)c1cnc(CSc2cnc(NC(=O)C3CCNCC3)s2)o1 [SNS-032] (first compound 0.01 µM, partner dose 0.01 µM) is higher in “cleaved PARP positive nuclei fraction” value: 50% for the first, 225% for the second.

First: O=C(Nc1cc(C(F)(F)F)cc(C(F)(F)F)c1)c1cc(Cl)ccc1O + C[C@@H]1CCN(C(=O)CC#N)C[C@@H]1N(C)c1ncnc2[nH]ccc12 [CP690550] (first compound 0.016 µM, partner dose 1 µM)
Second: Cc1cn(-c2cc(NC(=O)c3ccc(C)c(Nc4nccc(-c5cccnc5)n4)c3)cc(C(F)(F)F)c2)cn1 [nilotinib] + O=C(O)c1ccc(-c2c[nH]c3ncc(-c4ccccc4)cc23)cc1C1CCCC1 [GSK650394] (first compound 0.2 µM, partner dose 0.16 µM)
The “cleaved PARP positive nuclei fraction” value of the first is lower: 72.6% for the first, 86.4% for the second.

Going from CC[C@]1(O)C[C@H]2CN(CCc3c([nH]c4ccccc34)[C@@](C(=O)OC)(c3cc4c(cc3OC)N(C=O)[C@H]3[C@@](O)(C(=O)OC)[C@H](OC(C)=O)[C@]5(CC)C=CCN6CC[C@]43[C@@H]65)C2)C1 [vincristine] + CO[C@@H]1[C@H](N(C)C(=O)c2ccccc2)C[C@H]2O[C@]1(C)n1c3ccccc3c3c4c(c5c6ccccc6n2c5c31)C(=O)NC4 [Midostaurin] (first compound 0.0001 µM, partner dose 0.08 µM) to Cc1cc(Nc2cc(N3CCN(C)CC3)nc(Sc3ccc(NC(=O)C4CC4)cc3)n2)n[nH]1 [Tozasertib] + Cn1cncc1[C@@](N)(c1ccc(Cl)cc1)c1ccc2c(c1)c(-c1cccc(Cl)c1)cc(=O)n2C [tipifarnib] (first compound 0.006 µM, partner dose 0.01 µM), the “cleaved PARP positive nuclei fraction” value rises from 85.2% to 89%.

First: COc1cc([C@@H]2c3cc4c(cc3[C@@H](O[C@@H]3O[C@@H]5CO[C@@H](C)O[C@H]5[C@H](O)[C@H]3O)[C@H]3COC(=O)[C@H]23)OCO4)cc(OC)c1O [etoposide] + OCCn1cc(-c2cnc3nnn(Cc4ccc5ncccc5c4)c3n2)cn1 [PF04217903] (first compound 0.02 µM, partner dose 1 µM)
Second: CC[C@]1(O)C[C@H]2CN(CCc3c([nH]c4ccccc34)[C@@](C(=O)OC)(c3cc4c(cc3OC)N(C=O)[C@H]3[C@@](O)(C(=O)OC)[C@H](OC(C)=O)[C@]5(CC)C=CCN6CC[C@]43[C@@H]65)C2)C1 [vincristine] + O=C(Nc1cccc(Cl)c1)Nc1ncc(CCNc2ncnc3ccsc23)s1 [SNS314] (first compound 0.0001 µM, partner dose 0.0008 µM)
The “cleaved PARP positive nuclei fraction” value of the first is lower: 79.8% for the first, 82% for the second.

First: CCCCCCCCCCCCCCCCCCOP(=O)([O-])OC1CC[N+](C)(C)CC1 [Perifosine] + C[C@@H]1CCN(C(=O)CC#N)C[C@@H]1N(C)c1ncnc2[nH]ccc12 [CP690550] (first compound 0.4 µM, partner dose 1 µM)
Second: N#CC[C@H](C1CCCC1)n1cc(-c2ncnc3[nH]ccc23)cn1 [ruxolitinib] + COc1cc(Nc2ncc(F)c(Nc3ccc4c(n3)NC(=O)C(C)(C)O4)n2)cc(OC)c1OC [Tamatinib] (first compound 1 µM, partner dose 0.4 µM)
The “cleaved PARP positive nuclei fraction” value of the first is higher: 145% for the first, 130% for the second.

Compared with COc1cc([C@@H]2c3cc4c(cc3[C@@H](O[C@@H]3O[C@@H]5CO[C@@H](C)O[C@H]5[C@H](O)[C@H]3O)[C@H]3COC(=O)[C@H]23)OCO4)cc(OC)c1O [etoposide] + CN(NC(=O)CC(=O)NN(C)C(=S)c1ccccc1)C(=S)c1ccccc1 [STA4783] (first compound 0.02 µM, partner dose 0.006 µM), Cc1ccc(Nc2nccc(N(C)c3ccc4c(C)n(C)nc4c3)n2)cc1S(N)(=O)=O [Pazopanib] + Cn1cncc1[C@@](N)(c1ccc(Cl)cc1)c1ccc2c(c1)c(-c1cccc(Cl)c1)cc(=O)n2C [tipifarnib] (first compound 0.4 µM, partner dose 0.01 µM) is higher in “cleaved PARP positive nuclei fraction” value: 72.6% for the first, 150% for the second.

Compared with O=C(Nc1cc(C(F)(F)F)cc(C(F)(F)F)c1)c1cc(Cl)ccc1O + O=C(Nc1cccc(Cl)c1)Nc1ncc(CCNc2ncnc3ccsc23)s1 [SNS314] (first compound 0.016 µM, partner dose 0.0008 µM), Cc1cn(-c2cc(NC(=O)c3ccc(C)c(Nc4nccc(-c5cccnc5)n4)c3)cc(C(F)(F)F)c2)cn1 [nilotinib] + O=C(CCCCCCC(=O)Nc1ccccc1)NO [vorinostat] (first compound 0.2 µM, partner dose 0.08 µM) is higher in “cleaved PARP positive nuclei fraction” value: 105% for the first, 308% for the second.

Going from N#CC[C@H](C1CCCC1)n1cc(-c2ncnc3[nH]ccc23)cn1 [ruxolitinib] + O=C(O)c1ccc(-c2c[nH]c3ncc(-c4ccccc4)cc23)cc1C1CCCC1 [GSK650394] (first compound 1 µM, partner dose 0.16 µM) to Cc1cn(-c2cc(NC(=O)c3ccc(C)c(Nc4nccc(-c5cccnc5)n4)c3)cc(C(F)(F)F)c2)cn1 [nilotinib] + CC(C)(C)c1cnc(CSc2cnc(NC(=O)C3CCNCC3)s2)o1 [SNS-032] (first compound 0.2 µM, partner dose 0.01 µM), the “cleaved PARP positive nuclei fraction” value rises from 162% to 224%.

First: O=C(Nc1cc(C(F)(F)F)cc(C(F)(F)F)c1)c1cc(Cl)ccc1O + CO[C@@H]1[C@H](N(C)C(=O)c2ccccc2)C[C@H]2O[C@]1(C)n1c3ccccc3c3c4c(c5c6ccccc6n2c5c31)C(=O)NC4 [Midostaurin] (first compound 0.016 µM, partner dose 0.08 µM)
Second: COc1cc([C@@H]2c3cc4c(cc3[C@@H](O[C@@H]3O[C@@H]5CO[C@@H](C)O[C@H]5[C@H](O)[C@H]3O)[C@H]3COC(=O)[C@H]23)OCO4)cc(OC)c1O [etoposide] + NC(=O)Nc1cc(-c2cccc(F)c2)sc1C(=O)N[C@H]1CCCNC1 [AZD7762] (first compound 0.02 µM, partner dose 0.02 µM)
The “cleaved PARP positive nuclei fraction” value of the first is lower: 20% for the first, 54.8% for the second.

In the case of N#CC[C@H](C1CCCC1)n1cc(-c2ncnc3[nH]ccc23)cn1 [ruxolitinib] + Cc1ccc(NC(=O)c2cccc(N(C)C)c2)cc1NC(=O)c1ccc(O)cc1 [ZM336372] (first compound 1 µM, partner dose 2 µM), the “cleaved PARP positive nuclei fraction” value is reported as 54.3%.
For N#CC[C@H](C1CCCC1)n1cc(-c2ncnc3[nH]ccc23)cn1 [ruxolitinib] + CC1(C)NC(=O)N(c2ccc([N+](=O)[O-])c(C(F)(F)F)c2)C1=O [nilutamide] (first compound 1 µM, partner dose 1 µM), the “cleaved PARP positive nuclei fraction” value was 40.2%.

— the supplement of paper PMC4604168 (melanoma cell lines)
